Some of the results follow. The list holds hits alone, and they repeat only in part.
Key:
Test in all cases: PRISMA enrichment of interactor (LFQ) in peptide spot vs all other peptide spots (log2 fold change); higher = stronger / more specific binding of the interactor to the peptide
ANKRD17, O75179 = target: ANKRD17, O75179
Procedure: (§1)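 PRISMA: 15-aa overlapping tiles (offset 8 aa) of 60 microproteins, plus SOS1/GLUT1 control peptides, were spot-synthesized on cellulose membranes in triplicate. Membranes were incubated with benzonase-treated HEK293T lysate, and bound proteins were identified by LC-MS/MS with LFQ. Enrichment is the log2 fold change of each protein in one spot versus all other spots. Only interactors passing the significance cutoff are listed.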

Sequences of proteins named here, by UniProt entry; tags and fusion partners are left off.
FLNA, P21333, UniProt P21333, whole entry: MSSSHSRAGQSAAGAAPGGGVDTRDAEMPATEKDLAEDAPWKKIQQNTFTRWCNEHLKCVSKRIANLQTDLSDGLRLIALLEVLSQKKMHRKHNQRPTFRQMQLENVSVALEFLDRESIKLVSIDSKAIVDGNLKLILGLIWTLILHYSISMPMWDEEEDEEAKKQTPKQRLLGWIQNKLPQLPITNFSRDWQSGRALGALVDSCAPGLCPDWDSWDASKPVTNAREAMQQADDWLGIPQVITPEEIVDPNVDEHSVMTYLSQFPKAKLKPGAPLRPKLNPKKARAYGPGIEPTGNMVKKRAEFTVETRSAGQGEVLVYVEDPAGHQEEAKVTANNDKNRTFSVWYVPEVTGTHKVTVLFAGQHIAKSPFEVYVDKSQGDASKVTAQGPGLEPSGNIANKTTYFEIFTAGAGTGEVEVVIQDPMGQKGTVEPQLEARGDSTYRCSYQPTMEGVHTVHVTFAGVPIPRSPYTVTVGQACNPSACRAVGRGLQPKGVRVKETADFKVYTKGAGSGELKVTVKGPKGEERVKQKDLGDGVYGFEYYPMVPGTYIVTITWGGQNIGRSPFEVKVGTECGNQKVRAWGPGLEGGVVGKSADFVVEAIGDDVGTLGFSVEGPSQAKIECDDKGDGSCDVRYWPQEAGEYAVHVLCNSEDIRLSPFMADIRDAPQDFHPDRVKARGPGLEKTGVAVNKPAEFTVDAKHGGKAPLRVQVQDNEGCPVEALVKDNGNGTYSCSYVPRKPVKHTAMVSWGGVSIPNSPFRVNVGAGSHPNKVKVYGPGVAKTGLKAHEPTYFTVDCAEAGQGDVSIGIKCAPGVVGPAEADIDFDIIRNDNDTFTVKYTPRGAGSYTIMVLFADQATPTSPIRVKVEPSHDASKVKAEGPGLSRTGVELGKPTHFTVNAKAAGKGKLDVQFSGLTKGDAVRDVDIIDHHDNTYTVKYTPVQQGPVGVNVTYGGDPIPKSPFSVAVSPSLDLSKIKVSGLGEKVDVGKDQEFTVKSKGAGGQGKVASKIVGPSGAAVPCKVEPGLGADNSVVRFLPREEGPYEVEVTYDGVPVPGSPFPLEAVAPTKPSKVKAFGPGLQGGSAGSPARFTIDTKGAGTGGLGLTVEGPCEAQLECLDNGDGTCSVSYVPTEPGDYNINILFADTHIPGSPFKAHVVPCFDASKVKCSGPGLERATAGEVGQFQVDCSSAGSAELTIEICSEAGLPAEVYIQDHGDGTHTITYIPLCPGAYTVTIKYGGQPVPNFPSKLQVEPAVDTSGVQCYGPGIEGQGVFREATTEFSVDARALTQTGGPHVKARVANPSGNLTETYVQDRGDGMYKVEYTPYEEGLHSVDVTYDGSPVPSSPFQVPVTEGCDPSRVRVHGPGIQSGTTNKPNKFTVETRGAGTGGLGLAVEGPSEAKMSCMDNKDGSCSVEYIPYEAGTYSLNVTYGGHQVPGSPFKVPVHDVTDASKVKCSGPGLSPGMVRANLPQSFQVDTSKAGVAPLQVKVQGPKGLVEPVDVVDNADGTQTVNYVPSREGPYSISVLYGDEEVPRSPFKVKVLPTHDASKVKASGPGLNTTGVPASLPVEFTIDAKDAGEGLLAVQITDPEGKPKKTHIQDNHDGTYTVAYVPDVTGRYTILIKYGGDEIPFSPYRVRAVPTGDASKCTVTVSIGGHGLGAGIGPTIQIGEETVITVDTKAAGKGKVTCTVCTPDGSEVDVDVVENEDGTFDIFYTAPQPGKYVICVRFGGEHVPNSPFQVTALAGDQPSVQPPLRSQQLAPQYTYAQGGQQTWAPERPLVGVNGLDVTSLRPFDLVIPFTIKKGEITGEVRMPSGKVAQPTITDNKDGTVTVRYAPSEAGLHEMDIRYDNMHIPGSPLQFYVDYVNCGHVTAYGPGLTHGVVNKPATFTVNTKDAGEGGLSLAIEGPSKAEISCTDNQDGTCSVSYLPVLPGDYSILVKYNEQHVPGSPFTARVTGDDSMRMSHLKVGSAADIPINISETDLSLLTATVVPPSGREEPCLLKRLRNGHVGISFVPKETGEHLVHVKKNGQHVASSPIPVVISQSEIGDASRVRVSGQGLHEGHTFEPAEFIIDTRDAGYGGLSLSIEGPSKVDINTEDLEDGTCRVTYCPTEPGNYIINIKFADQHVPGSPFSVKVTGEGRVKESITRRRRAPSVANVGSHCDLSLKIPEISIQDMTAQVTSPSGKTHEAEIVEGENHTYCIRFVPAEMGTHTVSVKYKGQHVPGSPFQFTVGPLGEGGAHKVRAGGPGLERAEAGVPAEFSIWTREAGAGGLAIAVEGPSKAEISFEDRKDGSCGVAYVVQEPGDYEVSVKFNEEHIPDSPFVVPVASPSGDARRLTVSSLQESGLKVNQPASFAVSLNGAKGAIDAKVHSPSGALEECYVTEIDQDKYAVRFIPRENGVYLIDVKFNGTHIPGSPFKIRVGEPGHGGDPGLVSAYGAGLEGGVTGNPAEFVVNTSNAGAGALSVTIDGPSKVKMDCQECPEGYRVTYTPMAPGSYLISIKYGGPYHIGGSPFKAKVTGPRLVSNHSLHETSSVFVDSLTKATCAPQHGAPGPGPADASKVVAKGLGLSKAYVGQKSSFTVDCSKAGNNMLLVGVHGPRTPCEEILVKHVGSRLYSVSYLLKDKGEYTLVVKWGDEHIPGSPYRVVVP
SMARCA5, O60264, UniProt O60264, whole entry: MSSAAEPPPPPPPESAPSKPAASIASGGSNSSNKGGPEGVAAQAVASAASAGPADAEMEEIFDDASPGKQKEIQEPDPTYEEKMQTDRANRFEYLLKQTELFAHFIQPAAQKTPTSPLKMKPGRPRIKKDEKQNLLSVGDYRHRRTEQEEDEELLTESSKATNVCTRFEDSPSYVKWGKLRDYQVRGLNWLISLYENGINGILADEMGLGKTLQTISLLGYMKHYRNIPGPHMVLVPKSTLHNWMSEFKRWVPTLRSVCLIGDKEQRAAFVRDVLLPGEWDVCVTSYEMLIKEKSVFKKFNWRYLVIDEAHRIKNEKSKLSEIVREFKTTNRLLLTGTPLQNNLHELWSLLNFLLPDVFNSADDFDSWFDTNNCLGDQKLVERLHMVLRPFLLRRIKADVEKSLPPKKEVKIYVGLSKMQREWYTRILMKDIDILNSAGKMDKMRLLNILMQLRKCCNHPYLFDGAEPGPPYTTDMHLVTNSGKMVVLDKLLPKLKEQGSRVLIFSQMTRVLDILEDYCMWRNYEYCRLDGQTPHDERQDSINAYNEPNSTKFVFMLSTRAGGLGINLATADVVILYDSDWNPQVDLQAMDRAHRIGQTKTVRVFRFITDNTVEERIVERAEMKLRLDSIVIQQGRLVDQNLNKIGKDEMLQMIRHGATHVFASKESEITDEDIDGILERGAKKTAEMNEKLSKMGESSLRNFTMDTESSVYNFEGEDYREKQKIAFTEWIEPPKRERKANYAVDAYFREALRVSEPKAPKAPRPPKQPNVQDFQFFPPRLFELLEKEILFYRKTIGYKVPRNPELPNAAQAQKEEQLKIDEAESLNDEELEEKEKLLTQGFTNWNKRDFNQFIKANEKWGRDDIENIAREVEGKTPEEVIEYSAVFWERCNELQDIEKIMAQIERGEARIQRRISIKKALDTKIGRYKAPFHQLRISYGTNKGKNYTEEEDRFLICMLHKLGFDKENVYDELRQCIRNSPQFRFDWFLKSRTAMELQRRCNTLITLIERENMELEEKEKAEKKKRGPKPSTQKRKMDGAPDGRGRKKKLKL
RPS6KA3, P51812, UniProt P51812, whole entry: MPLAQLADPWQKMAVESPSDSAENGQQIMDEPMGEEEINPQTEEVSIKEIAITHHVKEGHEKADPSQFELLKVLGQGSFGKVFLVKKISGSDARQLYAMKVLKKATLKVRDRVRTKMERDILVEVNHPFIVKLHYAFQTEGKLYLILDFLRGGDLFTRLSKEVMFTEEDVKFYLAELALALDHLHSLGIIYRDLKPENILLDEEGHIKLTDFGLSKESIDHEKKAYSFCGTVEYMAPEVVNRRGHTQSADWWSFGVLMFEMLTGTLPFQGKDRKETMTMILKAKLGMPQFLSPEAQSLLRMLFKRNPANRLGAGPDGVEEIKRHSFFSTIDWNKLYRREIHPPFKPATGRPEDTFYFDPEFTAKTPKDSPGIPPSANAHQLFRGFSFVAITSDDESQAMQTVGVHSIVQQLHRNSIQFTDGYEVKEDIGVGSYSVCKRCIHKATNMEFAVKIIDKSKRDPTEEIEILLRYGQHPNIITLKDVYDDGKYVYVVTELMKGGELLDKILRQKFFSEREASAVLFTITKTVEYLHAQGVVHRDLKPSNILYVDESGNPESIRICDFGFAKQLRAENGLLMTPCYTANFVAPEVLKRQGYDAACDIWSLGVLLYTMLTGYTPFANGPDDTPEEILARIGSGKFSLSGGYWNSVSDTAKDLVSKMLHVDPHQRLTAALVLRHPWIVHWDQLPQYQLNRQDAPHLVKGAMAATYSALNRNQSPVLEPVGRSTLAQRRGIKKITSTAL

ATP5PB, P24539 = target: ATP5PB, P24539
Procedure: as §1

ATXN2L, Q8WWM7 = target: ATXN2L, Q8WWM7
Procedure: as §1

BOP1, Q14137 = target: BOP1, Q14137
Procedure: as §1

CCDC86, Q9H6F5 = target: CCDC86, Q9H6F5
Procedure: as §1

CEP290, O15078 = target: CEP290, O15078
Procedure: as §1

DCAF1, Q9Y4B6 = target: DCAF1, Q9Y4B6
Procedure: as §1

DDX42, Q86XP3 = target: DDX42, Q86XP3
Procedure: as §1

ECH1, Q13011 = target: ECH1, Q13011
Procedure: as §1

EIF5B, O60841 = target: EIF5B, O60841
Procedure: as §1

FLNA, P21333 = target: FLNA, P21333
Procedure: as §1

GART, P22102 = target: GART, P22102
Procedure: as §1

GTF2E2, P29084 = target: GTF2E2, P29084
Procedure: as §1

HYOU1, Q9Y4L1 = target: HYOU1, Q9Y4L1
Procedure: as §1

KARS, Q15046 = target: KARS, Q15046
Procedure: as §1

LARS2, Q15031 = target: LARS2, Q15031
Procedure: as §1

NOL12, Q9UGY1 = target: NOL12, Q9UGY1
Procedure: as §1

NTPCR, Q9BSD7 = target: NTPCR, Q9BSD7
Procedure: as §1

NUP43, Q8NFH3 = target: NUP43, Q8NFH3
Procedure: as §1

ORC6, Q9Y5N6 = target: ORC6, Q9Y5N6
Procedure: as §1

PCGF6, Q9BYE7 = target: PCGF6, Q9BYE7
Procedure: as §1

PDXDC1, Q6P996 = target: PDXDC1, Q6P996
Procedure: as §1

PSMB6, P28072 = target: PSMB6, P28072
Procedure: as §1

RRP7A, Q9Y3A4 = target: RRP7A, Q9Y3A4
Procedure: as §1

SMARCA5, O60264 = target: SMARCA5, O60264
Procedure: as §1

SRPRB, Q9Y5M8 = target: SRPRB, Q9Y5M8
Procedure: as §1

TIMM8B, Q9Y5J9 = target: TIMM8B, Q9Y5J9
Procedure: as §1

TMEM214, Q6NUQ4 = target: TMEM214, Q6NUQ4
Procedure: as §1

TMEM263, Q8WUH6 = target: TMEM263, Q8WUH6
Procedure: as §1

TRIM26, Q12899 = target: TRIM26, Q12899
Procedure: as §1

UBIAD1, Q9Y5Z9 = target: UBIAD1, Q9Y5Z9
Procedure: as §1

ARHGEF2, Q92974 = target: ARHGEF2, Q92974
Procedure: as §1

ATP5F1D, P30049 = target: ATP5F1D, P30049
Procedure: as §1

CHERP, Q8IWX8 = target: CHERP, Q8IWX8
Procedure: as §1

DEF8, Q6ZN54 = target: DEF8, Q6ZN54
Procedure: as §1

ESYT1, Q9BSJ8 = target: ESYT1, Q9BSJ8
Procedure: as §1

HADHB, P55084 = target: HADHB, P55084
Procedure: as §1

HSD17B4, P51659 = target: HSD17B4, P51659
Procedure: as §1

MT-ATP6, P00846 = target: MT-ATP6, P00846
Procedure: as §1

PDCL3, Q9H2J4 = target: PDCL3, Q9H2J4
Procedure: as §1

RBM38, Q9H0Z9 = target: RBM38, Q9H0Z9
Procedure: as §1

RPS6KA3, P51812 = target: RPS6KA3, P51812
Procedure: as §1

SURF4, O15260 = target: SURF4, O15260
Procedure: as §1

TARBP1, Q13395 = target: TARBP1, Q13395
Procedure: as §1

UBE3C, Q15386 = target: UBE3C, Q15386
Procedure: as §1

With LQDKLAATQKKLDLA [MTLN] as the binder, how does the “PRISMA enrichment of interactor (log2)” value (ANKRD17, O75179) read?
The value was 4.48.

And the “PRISMA enrichment of interactor (log2)” value (ATP5PB, P24539)?
The value was 5.59.

What about the “PRISMA enrichment of interactor (log2)” value (ATXN2L, Q8WWM7) of the same binder?
Its value is 5.36.

What about the “PRISMA enrichment of interactor (log2)” value (BOP1, Q14137) of the same binder?
Its value is 4.41.

And the “PRISMA enrichment of interactor (log2)” value (CCDC86, Q9H6F5)?
Its value is 5.99.

And the “PRISMA enrichment of interactor (log2)” value (CEP290, O15078)?
The value was 5.11.

And the “PRISMA enrichment of interactor (log2)” value (DCAF1, Q9Y4B6)?
The value was 5.39.

And the “PRISMA enrichment of interactor (log2)” value (DDX42, Q86XP3)?
Its value is 6.65.

And the “PRISMA enrichment of interactor (log2)” value (ECH1, Q13011)?
Its value is 5.46.

And the “PRISMA enrichment of interactor (log2)” value (EIF5B, O60841)?
The value was 5.6.

What about the “PRISMA enrichment of interactor (log2)” value (FLNA, P21333) of the same binder?
The value was 5.6.

And the “PRISMA enrichment of interactor (log2)” value (GART, P22102)?
The value was 5.08.

And the “PRISMA enrichment of interactor (log2)” value (GTF2E2, P29084)?
Its value is 4.41.

What about the “PRISMA enrichment of interactor (log2)” value (HYOU1, Q9Y4L1) of the same binder?
The value was 6.31.

What about the “PRISMA enrichment of interactor (log2)” value (KARS, Q15046) of the same binder?
Its value is 4.76.

And the “PRISMA enrichment of interactor (log2)” value (LARS2, Q15031)?
The value was 3.89.

And the “PRISMA enrichment of interactor (log2)” value (NOL12, Q9UGY1)?
Its value is 4.62.

And the “PRISMA enrichment of interactor (log2)” value (NTPCR, Q9BSD7)?
Its value is 5.24.

What about the “PRISMA enrichment of interactor (log2)” value (NUP43, Q8NFH3) of the same binder?
Its value is 5.08.

And the “PRISMA enrichment of interactor (log2)” value (ORC6, Q9Y5N6)?
The value was 5.9.

What about the “PRISMA enrichment of interactor (log2)” value (PCGF6, Q9BYE7) of the same binder?
Its value is 4.18.

What about the “PRISMA enrichment of interactor (log2)” value (PDXDC1, Q6P996) of the same binder?
Its value is 5.4.

And the “PRISMA enrichment of interactor (log2)” value (PSMB6, P28072)?
The value was 6.86.

And the “PRISMA enrichment of interactor (log2)” value (RRP7A, Q9Y3A4)?
The value was 4.54.

What about the “PRISMA enrichment of interactor (log2)” value (SMARCA5, O60264) of the same binder?
The value was 5.15.

What about the “PRISMA enrichment of interactor (log2)” value (SRPRB, Q9Y5M8) of the same binder?
Its value is 4.75.

What about the “PRISMA enrichment of interactor (log2)” value (TIMM8B, Q9Y5J9) of the same binder?
The value was 4.59.

What about the “PRISMA enrichment of interactor (log2)” value (TMEM214, Q6NUQ4) of the same binder?
Its value is 4.64.

And the “PRISMA enrichment of interactor (log2)” value (TMEM263, Q8WUH6)?
Its value is 5.55.

And the “PRISMA enrichment of interactor (log2)” value (TRIM26, Q12899)?
Its value is 4.52.

And the “PRISMA enrichment of interactor (log2)” value (UBIAD1, Q9Y5Z9)?
The value was 4.06.

With AVLSLYRALLRQGRQ [MIEF-MP] as the binder, how does the “PRISMA enrichment of interactor (log2)” value (ANKRD17, O75179) read?
The value was 5.76.

What about the “PRISMA enrichment of interactor (log2)” value (ARHGEF2, Q92974) of the same binder?
The value was 5.17.

And the “PRISMA enrichment of interactor (log2)” value (ATP5F1D, P30049)?
The value was 5.3.

What about the “PRISMA enrichment of interactor (log2)” value (CHERP, Q8IWX8) of the same binder?
The value was 7.26.

And the “PRISMA enrichment of interactor (log2)” value (DEF8, Q6ZN54)?
The value was 4.86.

And the “PRISMA enrichment of interactor (log2)” value (ESYT1, Q9BSJ8)?
The value was 6.6.

And the “PRISMA enrichment of interactor (log2)” value (HADHB, P55084)?
The value was 7.28.

What about the “PRISMA enrichment of interactor (log2)” value (HSD17B4, P51659) of the same binder?
The value was 4.16.

What about the “PRISMA enrichment of interactor (log2)” value (MT-ATP6, P00846) of the same binder?
The value was 4.48.

What about the “PRISMA enrichment of interactor (log2)” value (PDCL3, Q9H2J4) of the same binder?
The value was 7.67.

And the “PRISMA enrichment of interactor (log2)” value (RBM38, Q9H0Z9)?
The value was 8.33.

What about the “PRISMA enrichment of interactor (log2)” value (RPS6KA3, P51812) of the same binder?
The value was 4.16.

What about the “PRISMA enrichment of interactor (log2)” value (SURF4, O15260) of the same binder?
Its value is 4.71.

And the “PRISMA enrichment of interactor (log2)” value (TARBP1, Q13395)?
The value was 4.38.

And the “PRISMA enrichment of interactor (log2)” value (UBE3C, Q15386)?
Its value is 4.73.
